From PubChem BioAssay AID1671190 (National Center for Advancing Translational Sciences (NCATS), 2021)
Several values for one entry are separate records, joined by “and”; a condition that tells them apart may be missing. Identical values can stand only once. In all, about 580,000 compounds went through this assay and about 6,100 (1.1%) were called active. This list was built around the results that the source calls inconclusive (neither active nor inactive); the mix of calls is not that of the screen. Calls follow the shape of the dose curve; as a rule, active = well fitted inhibition curve with a large enough effect; inconclusive = small, poorly fitted or top-dose-only effect, or another doubt; inactive = no such curve, though single readings can be large or run the other way. A potency beside an inconclusive call is a rough fit, not a confirmed value.

Sequences of proteins named here, by UniProt entry; tags and fusion partners are left off. A change or cut given only in a name is not applied to a line headed by its entry.
UniProt P18054: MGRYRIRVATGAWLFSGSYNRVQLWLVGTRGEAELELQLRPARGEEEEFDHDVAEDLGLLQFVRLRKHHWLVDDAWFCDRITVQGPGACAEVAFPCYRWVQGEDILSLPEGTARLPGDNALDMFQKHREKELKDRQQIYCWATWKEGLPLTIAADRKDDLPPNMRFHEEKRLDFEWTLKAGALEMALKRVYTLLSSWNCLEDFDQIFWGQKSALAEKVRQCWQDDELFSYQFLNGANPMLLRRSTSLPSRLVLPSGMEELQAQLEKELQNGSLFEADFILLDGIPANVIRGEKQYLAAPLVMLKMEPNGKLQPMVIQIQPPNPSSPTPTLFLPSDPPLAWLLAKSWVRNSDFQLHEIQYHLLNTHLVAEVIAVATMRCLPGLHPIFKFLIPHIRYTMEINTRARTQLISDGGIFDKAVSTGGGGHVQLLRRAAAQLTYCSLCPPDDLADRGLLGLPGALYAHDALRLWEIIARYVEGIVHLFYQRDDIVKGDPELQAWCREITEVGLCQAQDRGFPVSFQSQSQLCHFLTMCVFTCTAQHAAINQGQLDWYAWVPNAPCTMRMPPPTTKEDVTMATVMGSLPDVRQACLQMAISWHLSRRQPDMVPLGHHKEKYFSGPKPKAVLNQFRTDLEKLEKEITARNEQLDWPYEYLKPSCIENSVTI

What follows are compounds tested against Polyunsaturated fatty acid lipoxygenase ALOX12 (Homo sapiens) (UniProt P18054) (assay: Primary qHTS assay for inhibitors of human arachidonate 12S-lipoxygenase (ALOX12): Round 2). Settings: purified 12hLO, xylenol orange hydroperoxide absorbance; series mostly up to 108 µM.
In short: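 Hydroperoxide product was detected by ferrous iron/xylenol orange as the 573 to 405 nm absorbance ratio. Arachidonic acid at 40 uM (final) was turned over for 30 min at room temperature by 150 nM human 12hLO, pH 7.0 Hepes buffer, after 15 min compound preincubation.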
Potency is read from the fitted curve at half-maximal effect.

Row | SMILES | Potency
1 | O=c1[nH]c(=O)n(Cc2ccccc2)c2nc(-c3ccncc3)n(CC3CCCO3)c12 (configuration not stated) | inconclusive: 35.5 µM [inhibitor, partial curve, poor fit]
2 | Cc1ccc(C2=NCC(C)n3c2c2ccccc2[n+]3[O-])cc1 (configuration not stated) | inactive
3 | CCOc1cc(S(=O)(=O)NCc2ccccn2)ccc1Cl | inactive
4 | CCN(Cc1ccncc1)C(=O)C1(Oc2ccc(C)cc2)CCNCC1 | inconclusive: 3.98 µM [inhibitor, full curve]
5 | Cc1noc(-c2cccs2)c1C(=O)NC(C)c1cccc2ccccc12 (configuration not stated) | inactive
6 | Cc1ccc(C)c(NC(=O)Cn2nc(-c3ccccc3)nc2-c2ccccc2)c1 | inconclusive: 178 µM [inhibitor, single point]
7 | COc1ccc(NC(=S)NCCN2CCC(C)CC2)cc1Cl | inconclusive: 44.7 µM [inhibitor, partial curve, poor fit]
8 | Cc1cccc(NS(=O)(=O)c2ccc(C)c(C(=O)NNC(=O)c3csc(N4CCOCC4)n3)c2)c1 | inactive
9 | Cc1ccc(C(c2sc3nc(-c4ccco4)nn3c2O)N2CCCC2)cc1 (configuration not stated) | inconclusive: 56.2 µM [inhibitor, partial curve, poor fit]
10 | Cc1cn2nc(C(=O)NCc3ccc(C(C)C)cc3)cc2c(N2CCSCC2)n1 | inactive
11 | CCC(=O)Nc1nc(-c2ccc3c(c2)CC(C)N3S(C)(=O)=O)cs1 (configuration not stated) | inactive
12 | CC(C)CCOC(=O)CC(C)C | inactive
13 | Oc1c(C(c2cccs2)N2CCCC2)sc2nc(-c3ccco3)nn12 (configuration not stated) | inconclusive: 100 µM [inhibitor, partial curve, poor fit]
14 | CCOC(=O)[C@@H]1CSCCS(=O)(=O)N1 | inactive
15 | COc1ccc(CN2CCc3c(c(=O)n4ncc(C(=O)N5CCN(c6ccccc6OC)CC5)c4n3C)C2)cc1 | inactive
16 | Cc1ccc(SCC(=O)NCc2ccc(CS(N)(=O)=O)cc2)c(C)c1 | inconclusive: 20 µM [inhibitor, full curve, poor fit]
17 | Cc1cccc(CNc2nc(-c3ccc4c(c3)OCO4)nc3ccccc23)c1 | active: 39.8 µM
18 | COc1cccc(-c2csc(NC(=O)Oc3ccccc3)n2)c1 | inconclusive: 100 µM [inhibitor, single point]
19 | CCN(CC)C(=O)COc1coc(CN2CCN(c3ccccc3)CC2)cc1=O | inactive
20 | Brc1ccc(-c2ncc3ccccn23)cc1 | inactive
21 | COc1c(O)cc2oc(-c3ccc(O)c(O)c3)cc(=O)c2c1O | active: 31.6 µM
22 | O=c1cc(-c2cccnc2)nc(-c2cccc(CN3CCNCC3)c2)[nH]1 | inconclusive: 7.94 µM [inhibitor, partial curve, poor fit]
23 | C[N+]1(C2CCC3CCCC2C3O)CCCC1 (configuration not stated) | inconclusive: 79.4 µM [inhibitor, partial curve, poor fit]

Row | SMILES | Potency
24 | CCC(C)NC(=O)CCCN1C(=O)CCn2nc(-c3cccn3C)cc21 (configuration not stated) | inconclusive: 126 µM [inhibitor, partial curve, poor fit]
25 | COC(=O)c1c(-c2ccccc2)csc1NC(=O)c1c(-c2ccccc2)noc1C | inconclusive: 141 µM [inhibitor, partial curve, poor fit]
26 | COc1ccc(-c2ccc3c(N)c(C(=O)c4ccc(OC)c(OC)c4)sc3n2)cc1 | inactive and inconclusive: 50.1 µM [inhibitor, partial curve, poor fit]
27 | CN=Cc1sc2ccccc2c1O | inactive
28 | O=C(CSc1nc(-c2ccccc2)c(-c2ccccc2)o1)N1CCCCC1 | inconclusive: 141 µM [inhibitor, partial curve, poor fit] and inconclusive: 112 µM [inhibitor, partial curve, poor fit]
29 | CCOC(=O)C1(CCOc2ccccc2)CCN(Cc2ccc(C(=O)OC)cc2)CC1 | inactive
30 | O=C(Cc1ccc(Cl)c(Cl)c1)NCc1cccs1 | inconclusive: 44.7 µM [inhibitor, single point]
31 | O=C(/C=C/c1cccs1)NCc1cccs1 | inactive
32 | O=[N+]([O-])c1cccc(CN2CCC(Cc3ccccc3)CC2)c1 | inconclusive: 0.398 µM [inhibitor, full curve]
33 | CCc1cccc(NC(=O)COC(=O)c2cn(CC)c3nc(C)ccc3c2=O)c1 | inconclusive: 7.08 µM [inhibitor, full curve, poor fit]
34 | COc1ccc(/C=C2\Sc3ccc(C(=O)NCC4CCCO4)cc3N(C)C2=O)cc1 (configuration not stated) | inactive
35 | COc1cccc(-c2sc3ccccc3c2-c2ccc(OCCN3CCCC3)cc2)c1 | inconclusive: 25.1 µM [inhibitor, partial curve]
36 | COc1cc(C(=O)NCC(c2ccco2)N2CCCC2)ccc1OCc1ccccc1 (configuration not stated) | inconclusive: 112 µM [inhibitor, single point]
37 | CCOC(=O)c1cnc2nc(-c3ccccc3)nn2c1C | inconclusive: 126 µM [inhibitor, partial curve, poor fit]
38 | O=C(Nc1ccccc1C(=O)Nc1ccccc1)c1ccco1 | inactive
39 | O=C(NC1CCCCC1)N1CCCC(c2nnc3n2CCNC3)C1 (configuration not stated) | inconclusive: 3.98 µM [inhibitor, full curve, poor fit]
40 | CCCc1cc(=O)[nH]c(SCC(=O)N2CCN(c3ccccc3)CC2)n1 | inconclusive: 50.1 µM [inhibitor, partial curve, poor fit]
41 | CCOC(=O)C1(Cc2ccccc2)CCCN(C(=O)c2cnn(CC)c2)C1 (configuration not stated) | inactive
42 | CCNC(=O)[C@H]1O[C@H](n2cnc3c(N)nc(NCCc4ccc(CCC(=O)O)cc4)nc32)[C@@H](O)[C@@H]1O | inconclusive: 39.8 µM [inhibitor, partial curve, poor fit]
43 | Cc1cccc(C(=O)NC(c2ccc(Cl)cc2)C2CC2)c1 (configuration not stated) | inconclusive: 44.7 µM [inhibitor, partial curve, poor fit]
44 | O=C(Nc1cc(Cl)cc(Cl)c1)c1ccc(S(=O)(=O)C2CCS(=O)(=O)C2)cc1 (configuration not stated) | inconclusive: 100 µM [inhibitor, partial curve, poor fit]
45 | Cc1ccc(Br)cc1S(=O)(=O)Nc1ccc2cn[nH]c2c1 | inactive
46 | CC(C)c1ccccc1NC(=O)Nc1nc(C(N)Cc2ccc(C(F)(F)F)cc2)cs1 (configuration not stated) | inconclusive: 50.1 µM [inhibitor, partial curve, poor fit]

Row | SMILES | Potency
47 | Cc1ccc2oc(C(=O)NCC(c3cccs3)N3CCCCC3)cc(=O)c2c1 (configuration not stated) | inactive
48 | COc1cc(CN2CCC(C(=O)NC3CCCC3)CC2)ccc1O | inconclusive: 1.58 µM [inhibitor, full curve, poor fit]
49 | CC1=NN(c2ccccc2)C(=O)/C1=C\C=C1/N(C)c2ccccc2C1(C)C | inconclusive: 31.6 µM [inhibitor, partial curve, poor fit]
50 | COc1ccc(/C(O)=C2/C(=O)C(=O)N(Cc3cccnc3)C2c2ccncc2)cc1F (configuration not stated) | inconclusive: 12.6 µM [inhibitor, partial curve, poor fit]
51 | CCOc1ccc(C2CCCN2Cc2cc(=O)oc3cc(C)ccc23)cc1 (configuration not stated) | inconclusive: 44.7 µM [inhibitor, partial curve, poor fit]
52 | CCOC(=O)c1sc(NC(=O)C(OC(C)=O)c2ccccc2)nc1C (configuration not stated) | inconclusive: 44.7 µM [inhibitor, partial curve, poor fit]
53 | CN(Cc1ccc(F)cc1)C(=O)c1cccc(S(=O)(=O)N2CCN(c3ccc(F)cc3)CC2)c1 | inconclusive: 35.5 µM [inhibitor, single point]
54 | CCOC(=O)C1=CCN(S(=O)(=O)c2ccc(C)cc2)C1c1ccc(C(C)C)cc1 (configuration not stated) | inactive
55 | Nc1ncnc2nc(SCC(=O)Nc3ccccc3F)[nH]c12 | inconclusive: 50.1 µM [inhibitor, single point]
56 | CC(C)c1nn2c(=O)cc(COC(=O)c3ccc(NC(=O)COc4ccccc4)cc3)nc2s1 | inconclusive: 141 µM [inhibitor, partial curve, poor fit]
57 | NC(=O)CCS(=O)CCC(N)=O | inconclusive: 126 µM [inhibitor, single point]
58 | CCN(CC)CCn1c2ccccc2c2n[nH]c(=S)nc21 | active: 31.6 µM
59 | CC(=O)O/N=C(\N)c1cnn2c(C(F)(F)F)cc(C(F)(F)F)nc12 | inconclusive: 2 µM [inhibitor, full curve, poor fit]
60 | N#Cc1cccnc1N1CCN(c2nccc(N3CCCC(O)C3)n2)CC1 (configuration not stated) | inactive
61 | CC(C)=CCC/C(C)=C/CNC(=O)C[C@H]1C[C@H](C(=O)N2CCCCC2)[C@@]2(C)c3[nH]c4cc(-c5ccco5)ccc4c3CCN2C1=O | inconclusive: 50.1 µM [inhibitor, partial curve, poor fit]
62 | COc1ccc(-c2nc(SCC(=O)N3CCCC3c3ccc4c(c3)OCCO4)n[nH]2)cc1 (configuration not stated) | inconclusive: 89.1 µM [inhibitor, single point]
63 | CC(C)c1ccc(CC(=O)N2CCC2(C)C(=O)NS(=O)(=O)c2ccc(F)cc2F)cc1 (configuration not stated) | inconclusive: 6.31 µM [inhibitor, full curve, poor fit]
64 | O=C(c1cc(Cl)ccc1F)N1CCCC(n2cc(-c3nc(-c4ccccc4)no3)nn2)C1 (configuration not stated) | inconclusive: 44.7 µM [inhibitor, partial curve, poor fit]
65 | OCCOCCOc1ccccc1OCCOCCO | inactive
66 | CCN(CC)C(=O)Cn1c(=O)cc(C)c2c(C)nn(-c3cccc(Cl)c3C)c21 | inactive
67 | CN(Cc1ccccc1Br)C(=O)Cn1c(Cl)nc2c1c(=O)n(C)c(=O)n2C | inactive
